Out of some 580,000 compounds screened, about 6,100 (1.1%) were called active. The call rests on the fitted dose curve; in most records, active means well fitted inhibition curve with a large enough effect; inconclusive means small, poorly fitted or top-dose-only effect, or another doubt; inactive means no such curve, though single readings can be large or run the other way. Inconclusive means that the source gave no clear call. A potency beside an inconclusive call is a rough fit, not a confirmed value.
target: Polyunsaturated fatty acid lipoxygenase ALOX12 (Homo sapiens) (UniProt P18054); experiment: Primary qHTS assay for inhibitors of human arachidonate 12S-lipoxygenase (ALOX12): Round 2; conditions: purified 12hLO, xylenol orange hydroperoxide absorbance; series mostly up to 108 µM
Description: Assay Provider: Theodore R. Holman Ph.D. University of California, Santa Cruz, California Human lipoxygenase 12hLO is a member of the closely related lipoxygenase family of enzymes which catalyze the site-specific oxidation of arachidonic acid to various hormone precursor molecules and as such is a candidate for drug development in a variety of disease areas, such as cancer and inflammation. Inhibition of 12hLO activity was screened by utilizing arachidonic acid as a substrate. The extent of hydroperoxide product formation was measured by a secondary chromogenic reaction in which xylenol orange (XO, Sigma-Aldrich, cat. number 39,818-7) reacts with the ferric ions produced from the reaction between the hydroperoxide and ferrous ions. The Fe (III)-XO complex is characterized with red-shifted absorbance at 560 nm. A purified preparation of human 12hLO was supplied by Dr. Holman laboratory, University of California, Santa Cruz.
PROTOCOL TABLE SEQUENCE No. (e.g., 1, 2, 3, etc.); […] (e.g., Cells, Incubation, Reagent, etc.); VALUE; DESCRIPTION 1; Enzyme; 3 uL; 150 nM 12hLO enzyme solution dispensed in 1536-well Greiner black, clear bottom plates. 2; Compound; 23 nL; compounds and controls were added. 3; Incubate; 15 min; room temperature. 4; Substrate; 1 uL; 40 uM arachidonic acid (final concentration). 5; Incubate; 30 min; room temperature. 6; Reagent; 4 uL; Fe-XO solution was added to each well. 7; Incubation; 30 min; room temperature 8; Detector; absorbance; Read 1 at 405 nm absorbance using ViewLux (Perkin-Elmer) CCD imager. 9; Detector; absorbance; Read 2 at 573 nm absorbance using ViewLux (Perkin-Elmer) CCD imager. NOTES (numbers refer to sequence above) 1; 150 nM 12hLO (final concentration) in buffer solution (25 mM Hepes, 0.01% Triton X-100, pH 7.0) was dispensed in columns 1, 2, 5-48. Column 1 is neutral (100% activity). Buffer only was dispensed in columns 3 and 4 as no enzyme negative controls. The plates were covered with metal lids with gas-exchange holes. 2; Compounds were pin transferred via a Kalypsys Pin Tool (Wako USA) in column 5-48. Control compound was transferred in column 2, titration of nordihydroguaiaretic acid (NDGA, Sigma-Aldrich, N5023) with top concentration of 20 mM in DMSO then 1:3 dilution in duplicate. Dilution factor of 23 nL into 4 uL final assay volume. 3; Covered assay plates were incubated for 15 min at room temperature. 4; Substrate was added to start the reaction; 40 uM arachidonic acid (Sigma-Aldrich, St. Louis, MO) was dispensed throughout the plate. 6; Chromogenic detection reagent solution (divalent iron/xylenol orange, Fe-XO) was added to each well: 200 uM xylenol orange, 300 uM ferrous ammonium sulfate prepared freshly in 50 mM sulfuric acid. 8, 9; Two absorbance readouts were obtained at 405 nm and at 573 nm using a ViewLux high-throughput CCD plate imager (Perkin-Elmer). The 573 to 405 (Read 2 / Read 1) absorbance ratio was used to compute reaction progress.
Potency means the concentration at half of the fitted maximal effect.

Protein sequences, listed by entry. Tags and fused reporters are not part of them. Lines headed by an entry give the natural chain unless they say otherwise; changes in a name come on top.
UniProt P18054: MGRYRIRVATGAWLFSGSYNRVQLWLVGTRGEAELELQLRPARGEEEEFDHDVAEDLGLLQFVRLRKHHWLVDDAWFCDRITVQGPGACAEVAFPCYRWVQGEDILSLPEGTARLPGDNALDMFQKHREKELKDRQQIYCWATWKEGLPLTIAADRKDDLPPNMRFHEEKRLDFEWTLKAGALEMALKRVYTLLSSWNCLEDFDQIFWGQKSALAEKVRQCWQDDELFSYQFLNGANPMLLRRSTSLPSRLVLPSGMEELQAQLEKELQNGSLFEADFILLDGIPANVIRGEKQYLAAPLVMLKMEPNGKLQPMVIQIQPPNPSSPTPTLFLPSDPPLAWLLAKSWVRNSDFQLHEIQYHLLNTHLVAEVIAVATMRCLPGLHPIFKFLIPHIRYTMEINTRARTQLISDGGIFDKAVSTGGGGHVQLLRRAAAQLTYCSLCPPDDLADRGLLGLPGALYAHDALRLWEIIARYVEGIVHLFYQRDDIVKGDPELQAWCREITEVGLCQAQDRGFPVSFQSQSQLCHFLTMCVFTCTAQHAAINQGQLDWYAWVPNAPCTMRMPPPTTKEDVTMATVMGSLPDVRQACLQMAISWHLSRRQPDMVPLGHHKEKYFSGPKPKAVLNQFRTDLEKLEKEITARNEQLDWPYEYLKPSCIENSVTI

Structure (SMILES) | Potency
CCOC(=O)c1sc(N2C(=O)C(O)=C(C(=O)c3ccc(C)o3)C2c2cccc([N+](=O)[O-])c2)nc1C (stereo not given) | inconclusive: 28.2 µM [inhibitor, partial curve, poor fit]
COc1cc(/C=C2\C(=N)N3N=C(S(C)(=O)=O)SC3=NC2=O)cc(OC)c1OCCOc1ccc(C)cc1 | inconclusive: 89.1 µM [inhibitor, partial curve, poor fit]
O=C(O)Cn1cc(/C=c2/sc3nc4ccccc4n3c2=O)c2ccccc21 | inconclusive: 11.2 µM [inhibitor, partial curve, poor fit]
Cc1ccccc1N/N=C/c1sc(=O)n(Cc2cccc(C(=O)O)c2)c1Cl | inconclusive: 22.4 µM [inhibitor, partial curve, poor fit]
COC(=O)c1sc(-c2ccc(C(C)(C)C)cc2)cc1NC(=O)COCC(=O)O | inconclusive: 126 µM [inhibitor, partial curve, poor fit]

Source: PubChem BioAssay AID1671190 (National Center for Advancing Translational Sciences (NCATS), 2021)
